{"source": "PubChem BioAssay AID1259405 (NCATS, 2018)", "aim": "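Mouse-designed siRNAs used to find CHO productivity engineering targets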 (primary screen)", "cells": "Chinese hamster CHO-K1 ovary cells with stable secreted eGFP expression", "reagents": "single siRNA against mouse genes, 0.8 pmol siRNA per well (2 µl of 400 nM stock)", "timing": "3 days", "measured": "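Per-well intracellular GFP measured by laser scanning cytometry, plus viability from ATP luminescence, each relative to plate median of non-targeting control wells, in %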", "direction": "GFP, % of control: higher = more GFP per well, higher productivity; viability (ATP), % of control: higher = more viable cells (more ATP)", "rule for the call": "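a knock-down is called active if GFP reaches 120% or more of non-targeting control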", "note": "The deposit covers about 50,000 reagents; shown is an unselected part. Over the whole deposit, about 4,000 (8%) got an active call. 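Mouse siRNA library applied to hamster cells; one well for each siRNA.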 Entries without a mark were called inactive. Reagents against one gene are numbered here. Reagent sequences are not shown."}
{"gene knocked down": "Ap5b1", "siRNA no.": 1, "GFP, % of control": 74.7, "viability (ATP), % of control": 102}
{"gene knocked down": "Ap5b1", "siRNA no.": 2, "GFP, % of control": 90.9, "viability (ATP), % of control": 93.5}
{"gene knocked down": "Ap5b1", "siRNA no.": 3, "GFP, % of control": 56.1, "viability (ATP), % of control": 65.4}
{"gene knocked down": "Klk7", "siRNA no.": 1, "GFP, % of control": 57.2, "viability (ATP), % of control": 78.2}
{"gene knocked down": "Klk7", "siRNA no.": 2, "GFP, % of control": 67.8, "viability (ATP), % of control": 85.2}
{"gene knocked down": "Klk7", "siRNA no.": 3, "GFP, % of control": 50.8, "viability (ATP), % of control": 57.8}
{"gene knocked down": "Fezf2", "siRNA no.": 1, "GFP, % of control": 67.5, "viability (ATP), % of control": 65.1}
{"gene knocked down": "Fezf2", "siRNA no.": 2, "GFP, % of control": 62.6, "viability (ATP), % of control": 74.2}
{"gene knocked down": "Fezf2", "siRNA no.": 3, "GFP, % of control": 51.4, "viability (ATP), % of control": 45}
{"gene knocked down": "Zfp46", "siRNA no.": 1, "GFP, % of control": 88, "viability (ATP), % of control": 64.2}
{"gene knocked down": "Zfp46", "siRNA no.": 2, "GFP, % of control": 56.1, "viability (ATP), % of control": 67.9}
{"gene knocked down": "Zfp46", "siRNA no.": 3, "GFP, % of control": "122 (active)", "viability (ATP), % of control": 107}
{"gene knocked down": "Tmem114", "siRNA no.": 1, "GFP, % of control": 20.9, "viability (ATP), % of control": 12.6}
{"gene knocked down": "Tmem114", "siRNA no.": 2, "GFP, % of control": 52.6, "viability (ATP), % of control": 25.1}
{"gene knocked down": "Tmem114", "siRNA no.": 3, "GFP, % of control": 47.6, "viability (ATP), % of control": 39.3}
{"gene knocked down": "Gpr34", "siRNA no.": 1, "GFP, % of control": 52.2, "viability (ATP), % of control": 64.6}
{"gene knocked down": "Gpr34", "siRNA no.": 2, "GFP, % of control": 75, "viability (ATP), % of control": 84.5}
{"gene knocked down": "Gpr34", "siRNA no.": 3, "GFP, % of control": 90.7, "viability (ATP), % of control": 102}
{"gene knocked down": "Asb11", "siRNA no.": 1, "GFP, % of control": 13.4, "viability (ATP), % of control": 8.86}
{"gene knocked down": "Asb11", "siRNA no.": 2, "GFP, % of control": 68.2, "viability (ATP), % of control": 74}
{"gene knocked down": "Asb11", "siRNA no.": 3, "GFP, % of control": 52.2, "viability (ATP), % of control": 72.1}

Next part (2 carried over from the part before).
{"gene knocked down": "Asb11", "siRNA no.": 2, "GFP, % of control": 68.2, "viability (ATP), % of control": 74}
{"gene knocked down": "Asb11", "siRNA no.": 3, "GFP, % of control": 52.2, "viability (ATP), % of control": 72.1}
{"gene knocked down": "Mybpc3", "siRNA no.": 1, "GFP, % of control": 45.2, "viability (ATP), % of control": 120}
{"gene knocked down": "Mybpc3", "siRNA no.": 2, "GFP, % of control": "128 (active)", "viability (ATP), % of control": 74.9}
{"gene knocked down": "Ttc14", "siRNA no.": 1, "GFP, % of control": 62.4, "viability (ATP), % of control": 54.3}
{"gene knocked down": "Ttc14", "siRNA no.": 2, "GFP, % of control": "143 (active)", "viability (ATP), % of control": 91.2}
{"gene knocked down": "Ttc14", "siRNA no.": 3, "GFP, % of control": 107, "viability (ATP), % of control": 102}
{"gene knocked down": "Noc4l", "siRNA no.": 1, "GFP, % of control": 104, "viability (ATP), % of control": 124}
{"gene knocked down": "Noc4l", "siRNA no.": 2, "GFP, % of control": 51.1, "viability (ATP), % of control": 62.5}
{"gene knocked down": "Noc4l", "siRNA no.": 3, "GFP, % of control": 59.1, "viability (ATP), % of control": 89.5}
{"gene knocked down": "Cort", "siRNA no.": 1, "GFP, % of control": 66.2, "viability (ATP), % of control": 59.8}
{"gene knocked down": "Cort", "siRNA no.": 2, "GFP, % of control": 70.7, "viability (ATP), % of control": 54}
{"gene knocked down": "Cort", "siRNA no.": 3, "GFP, % of control": 38.7, "viability (ATP), % of control": 43}
{"gene knocked down": "Vmn1r11", "siRNA no.": 1, "GFP, % of control": 47.7, "viability (ATP), % of control": 63.1}
{"gene knocked down": "Vmn1r11", "siRNA no.": 2, "GFP, % of control": 48.1, "viability (ATP), % of control": 36.1}
{"gene knocked down": "Vmn1r11", "siRNA no.": 3, "GFP, % of control": 64.4, "viability (ATP), % of control": 97.2}
{"gene knocked down": "Dnajc9", "siRNA no.": 1, "GFP, % of control": 81.5, "viability (ATP), % of control": 71}
{"gene knocked down": "Dnajc9", "siRNA no.": 2, "GFP, % of control": 73.2, "viability (ATP), % of control": 57.1}
{"gene knocked down": "Dnajc9", "siRNA no.": 3, "GFP, % of control": 99.7, "viability (ATP), % of control": 103}
{"gene knocked down": "Slc30a5", "siRNA no.": 1, "GFP, % of control": 57.6, "viability (ATP), % of control": 77.2}
{"gene knocked down": "Slc30a5", "siRNA no.": 2, "GFP, % of control": 67, "viability (ATP), % of control": 97.3}
{"gene knocked down": "Slc30a5", "siRNA no.": 3, "GFP, % of control": 93.7, "viability (ATP), % of control": 114}
{"gene knocked down": "Btnl9", "siRNA no.": 1, "GFP, % of control": 73.2, "viability (ATP), % of control": 91.5}
{"gene knocked down": "Btnl9", "siRNA no.": 2, "GFP, % of control": 25.8, "viability (ATP), % of control": 42.2}
{"gene knocked down": "Btnl9", "siRNA no.": 3, "GFP, % of control": 77, "viability (ATP), % of control": 57.2}
{"gene knocked down": "Tnip1", "siRNA no.": 1, "GFP, % of control": 61.8, "viability (ATP), % of control": 57.9}
{"gene knocked down": "Tnip1", "siRNA no.": 2, "GFP, % of control": 96.4, "viability (ATP), % of control": 147}
{"gene knocked down": "Tnip1", "siRNA no.": 3, "GFP, % of control": "130 (active)", "viability (ATP), % of control": 132}
{"gene knocked down": "Fbxw14", "siRNA no.": 1, "GFP, % of control": 83.1, "viability (ATP), % of control": 66.8}
{"gene knocked down": "Fbxw14", "siRNA no.": 2, "GFP, % of control": "160 (active)", "viability (ATP), % of control": 120}
{"gene knocked down": "Fbxw14", "siRNA no.": 3, "GFP, % of control": 97, "viability (ATP), % of control": 62.2}
{"gene knocked down": "Anks1b", "siRNA no.": 1, "GFP, % of control": 44.4, "viability (ATP), % of control": 33}
{"gene knocked down": "Anks1b", "siRNA no.": 2, "GFP, % of control": 74.3, "viability (ATP), % of control": 71.9}
{"gene knocked down": "Anks1b", "siRNA no.": 3, "GFP, % of control": 60.2, "viability (ATP), % of control": 69}
